Where a chain is given by its changes, count along the chain named. Construct, isoform or probe ends are uncertain for at least one entry. Protein sequences can lack the tags named with them.
Assays:
Assay in all cases: enzyme reaction in vitro
[1] = molecular target: T1, RNase H2 P13T (Pyrococcus abyssi) (UniProt Q9V1A9); conditions: 3' C3 spacer, rhPCR, 10 mU column, purified recombinant protein, protein details: 6xHis
T1 sequence: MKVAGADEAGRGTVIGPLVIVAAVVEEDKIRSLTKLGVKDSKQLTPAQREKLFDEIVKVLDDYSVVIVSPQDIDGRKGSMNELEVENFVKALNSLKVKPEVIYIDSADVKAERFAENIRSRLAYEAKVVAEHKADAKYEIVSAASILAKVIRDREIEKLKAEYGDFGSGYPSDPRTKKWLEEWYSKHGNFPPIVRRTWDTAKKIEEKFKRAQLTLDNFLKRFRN

[2] = molecular target: T2, RNase H2 G12A (Pyrococcus abyssi) (UniProt Q9V1A9); conditions: 3' C3 spacer, rhPCR, 10 mU column, purified recombinant protein, protein details: 6xHis
T2 sequence: T1 sequence with G12A, T13P

[3] = molecular target: T3, RNase H2 G169A (Pyrococcus abyssi) (UniProt Q9V1A9); conditions: 3' C3 spacer, rhPCR, 10 mU column, purified recombinant protein, protein details: 6xHis
T3 sequence: T1 sequence with T13P, G169A

[4] = molecular target: T4, RNase H2 WT (Pyrococcus abyssi) (UniProt Q9V1A9); conditions: 3' C3 spacer, rhPCR, 10 mU column, purified recombinant protein
T4 sequence: T1 sequence with T13P

Sequence: GTGATTTTGGTCTAGCTACAGAAAAA [rs113488022 rGA 4dmx rhPrimer]
- activity on this sequence ([1]; single RNA residue rG, T 42.0, A 27.0): 15 delta Cq
- activity on this sequence ([2]; single RNA residue rG, T 75.6, A 48.2): 27.4 delta Cq
- activity on this sequence ([3]; single RNA residue rG, T 43.2, A 26.4, WT 14.2, text cites SEQ 206/207 but table labels rGA): 16.8 delta Cq
- activity on this sequence ([4]; single RNA residue rG, T 33.3, A 26.0, SEQ 211 printed identical to 210, protein details: …): 7.3 delta Cq

Sequence: GTGATTTTGGTCTAGCTACAGTAAAA [rs113488022 rGT 4dmx rhPrimer]
- activity on this sequence ([1]; single RNA residue rG (GTGATTTTGGTCTAGCTACArGTAAAA-x), T 31.7, A 37.3): 5.6 delta Cq
- activity on this sequence ([2]; single RNA residue rG (GTGATTTTGGTCTAGCTACArGTAAAA-x), T 55.7, A 66.8): 11.1 delta Cq
- activity on this sequence ([3]; single RNA residue rG (GTGATTTTGGTCTAGCTACArGTAAAA-x), T 29.2, A 39.3, WT 0.0, text cites SEQ 206/207 but table labels rGT): 10.1 delta Cq
- activity on this sequence ([4]; single RNA residue rG (GTGATTTTGGTCTAGCTACArGTAAAA-x), T 26.4, A 26.5, mismatch 3' of RNA, protein details: 6xHis): 0.2 delta Cq

Source: patent publication US20170260583
